Data as given in patent US20260139263A1 (IOWA STATE UNIVERSITY RESEARCH FOUNDATION, published 2026).
No constants are given. Whether binding was seen depends on the method and setting. In cells and extracts the contact can be indirect. Binding calls can cover weak binding; strength is not graded here. Tags and fused reporters may be left off the sequences shown.

Tests used:
Assay in all cases: GST pull-down
[1] = target: rice NF-YC4 homolog Os2g07450 (Oryza sativa (rice))
[2] = target: rice NF-YC4 homolog Os3g14669 (Oryza sativa (rice))
[3] = target: rice NF-YC4 homolog Os6g45640 (Oryza sativa (rice))
[4] = target: soybean NF-YC4 homolog Glyma04g37291 (Glycine max (soybean))
[5] = target: soybean NF-YC4 homolog Glyma06g17780 (Glycine max (soybean))

binding [1]: binds | binding [2]: binds | binding [3]: binds | binding [4]: binds | binding [5]: binds
B1: GST-QQS fusion protein (protein, not shown: a dimerising Fc or GST)
chain: MKTNREQEIYVERSFKPNNSTIQNLMDIERFILPHTSTSGVARLKMRVISWVGLQFYNY
